Results from one PubChem assay

From PubChem BioAssay record AID1224904 (Broad Institute, 2016).

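293T-iDUX4 cells carrying a ZSCAN4-driven Gaussia luciferase and a tet-on Italica luciferase control; the gap between the two luminescence signals is read after 24 h. The test concentration is not given here. Percent difference between the Gaussia and Italica channels; more negative values mean more selective suppression of the DUX4 reporter, and higher values mean less activity.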

Values are in %. How 0% and 100% were set is not given here. Common to all entries: measured here: selective DUX4 reporter inhibition. This is a side read-out of the assay, for part of the compounds, not drawn at random.

For Fc1cccc(-c2ccc(C3[C@@H]4CN(Cc5ccccc5F)C[C@H]3N4)cc2)c1 (some centres not stated) the result was Gaussia minus Italica difference -0.4279%.
For N#C[C@@H]1[C@H](c2ccccc2-c2cccc(F)c2)[C@H](CO)N1C(=O)NC1CCCCC1 the result was Gaussia minus Italica difference 2.89%.
For C[C@@H]1CN([C@@H](C)CO)C(=O)c2c(c3ccccc3n2C)-c2ccccc2CO[C@H]1CN(C)C(=O)c1cc(Cl)cc(Cl)c1 the result was Gaussia minus Italica difference -21.45%.
For COc1ccccc1NC(=O)N1CCCCN2[C@H](CO)[C@@H](c3ccc(-c4cccc(C#N)c4)cc3)[C@H]2C1 the result was Gaussia minus Italica difference -7.534%.
For COC(=O)[C@@H]1[C@@H](CO)[C@@H]2Cn3c(ccc(/C=C/c4ccccc4)c3=O)[C@H]1N2CC1CCCC1 the result was Gaussia minus Italica difference -12.74%.
For O=C(Nc1cccc(Cl)c1)N[C@@H]1CC[C@H](CCn2cc(Cc3ccccc3)nn2)O[C@H]1CO the result was Gaussia minus Italica difference 0.1732%.
For C[C@H](NC(=O)C[C@@H]1C[C@@H]2c3cc(NS(=O)(=O)c4ccc(F)cc4)ccc3O[C@@H]2[C@@H](CO)O1)c1ccccc1 the result was Gaussia minus Italica difference -15.75%.
For CO[C@@H]1CN(C)C(=O)c2cc(NC(=O)Nc3ccccc3F)ccc2OC[C@@H](C)N(Cc2ccccc2F)C[C@H]1C the result was Gaussia minus Italica difference -3.606%.
For COc1ccc2c3c(n(C)c2c1)[C@@H](CO)N(C(=O)Nc1ccccc1F)CC31CCN(C(=O)c2ccccc2)CC1 the result was Gaussia minus Italica difference -14.45%.
For COc1cccc(-c2ccc([C@H]3[C@@H](C#N)N(C(=O)c4ccccn4)[C@H]3CO)cc2)c1 the result was Gaussia minus Italica difference -6.665%.
For O=C(c1cnccn1)N1CC[C@@H]2[C@H]1c1cc(-c3cccc(F)c3)ccc1N[C@@H]2CO the result was Gaussia minus Italica difference -8.699%.
For CC(C)[C@@H](C)NC(=O)N(C)C[C@@H]1OCc2ccccc2-c2c(n(C)c3ccccc23)C(=O)N([C@@H](C)CO)C[C@@H]1C the result was Gaussia minus Italica difference -0.8011%.
For CC(C)COC(=O)N(C)C[C@@H]1OCc2ccccc2-c2ccccc2C(=O)N([C@H](C)CO)C[C@@H]1C the result was Gaussia minus Italica difference -1.934%.
For O=C(Nc1cccc(F)c1)N1CCCCN2[C@@H](CO)[C@@H](c3ccc(C#Cc4cccnc4)cc3)[C@@H]2C1 the result was Gaussia minus Italica difference -13.57%.
For COc1ccc(NC(=O)N2CCCCN3[C@H](C2)[C@@H](c2ccc(C#Cc4ccccn4)cc2)[C@@H]3CO)cc1 the result was Gaussia minus Italica difference -13.02%.
For O=S(=O)(c1ccc(F)cc1)N1CC[C@H]2[C@H](CO)Nc3ccc(-c4ccc(F)cc4)cc3[C@H]21 the result was Gaussia minus Italica difference -13.35%.
For COc1cc(CN2CC3(CN(S(=O)(=O)c4cccc(F)c4)C3)c3c([nH]c4cc(OC)ccc34)[C@H]2CO)cc(OC)c1 the result was Gaussia minus Italica difference -21.12%.
For O=C(C[C@@H]1CC[C@@H]2[C@H](COC[C@@H](O)CN2C(=O)Nc2ccc(Cl)c(Cl)c2)O1)NCc1ccc(Cl)c(Cl)c1 the result was Gaussia minus Italica difference 9.877%.
For Cc1cccc(S(=O)(=O)N2C[C@@H]3N[C@H](C2)C3c2ccc(-c3ccccc3C)cc2)c1 (some centres not stated) the result was Gaussia minus Italica difference -14.06%.
For CCCC#Cc1ccc([C@@H]2[C@@H](CO)N3C(=O)CN(S(=O)(=O)c4ccccc4C)C[C@H]23)cc1 the result was Gaussia minus Italica difference -3.668%.
For O=C(Nc1ccc(Cl)cc1)N[C@H]1CC[C@@H](CCn2cc(-c3ccccc3F)nn2)O[C@H]1CO the result was Gaussia minus Italica difference -3.564%.
For COc1ccc2c3c([nH]c2c1)[C@H](CO)N(Cc1ccc2c(c1)OCO2)CC31CCN(C(=O)Nc2c(C)noc2C)CC1 the result was Gaussia minus Italica difference -11.14%.
For COc1cccc(C#Cc2ccc([C@@H]3[C@@H](CO)N4C(=O)CN(S(=O)(=O)c5ccccc5C)C[C@H]34)cc2)c1 the result was Gaussia minus Italica difference -10.04%.
For COc1ccc2c3c(n(C)c2c1)[C@@H](CO)N(Cc1nccs1)CC31CCN(C(=O)CC2CC2)CC1 the result was Gaussia minus Italica difference -6.365%.
For COc1ccc2c3c([nH]c2c1)[C@H](CO)N(CC1CC1)CC31CCN(C(=O)c2ccc(F)cc2)CC1 the result was Gaussia minus Italica difference 0.881%.
For COC(=O)[C@H]1[C@H](CO)[C@H]2Cn3c(ccc(C4=CCCC4)c3=O)[C@@H]1N2C(=O)CC1CC1 the result was Gaussia minus Italica difference -20.53%.
For C[C@H](CO)N1C[C@H](C)[C@@H](CN(C)C(=O)[C@H](C)c2ccccc2)OCc2ccccc2-c2c(n(C)c3ccccc23)C1=O the result was Gaussia minus Italica difference -2.539%.
For O=C(C[C@@H]1C[C@H]2c3cc(NC(=O)Nc4ccccc4)ccc3O[C@H]2[C@H](CO)O1)NC1CCCC1 the result was Gaussia minus Italica difference -8.495%.
For N#Cc1ccc(-c2ccc3c(c2)[C@H]2[C@H](CCN2C(=O)C2CCCCC2)[C@@H](CO)N3)cc1 the result was Gaussia minus Italica difference -20.17%.
For O=C(c1ccc2c(c1)OCO2)N1CCCCN2[C@H](C1)[C@H](c1ccc(-c3ccccc3)cc1)[C@@H]2CO the result was Gaussia minus Italica difference -8.049%.
For C/C=C/c1ccc([C@@H]2[C@H](CO)N(C(=O)C3CCCC3)C23CN(S(=O)(=O)CC)C3)cc1 the result was Gaussia minus Italica difference -0.8751%.
For O=S(=O)(c1cccc(F)c1)N1CC[C@@H]2[C@H](CO)Nc3ccc(-c4cccc(F)c4)cc3[C@@H]21 the result was Gaussia minus Italica difference 6.12%.
For COc1ccc(S(=O)(=O)N2CC[C@H]3[C@H](CO)Nc4ccc(-c5ccccc5F)cc4[C@H]32)cc1 the result was Gaussia minus Italica difference -15.75%.
For CO[C@@H]1CN(C)C(=O)c2cc(NC(=O)Nc3ccccc3F)ccc2OC[C@H](C)N(CCC(F)(F)F)C[C@H]1C the result was Gaussia minus Italica difference -18.77%.
For CN1c2ccc(-c3cccc(F)c3)cc2[C@@H]2[C@@H](CCN2C(=O)Cc2ccccc2)[C@H]1CO the result was Gaussia minus Italica difference -20.79%.
For COc1ccc2c3c([nH]c2c1)[C@H](CO)N(CC1CC1)CC31CN(C(=O)c2cccc(F)c2)C1 the result was Gaussia minus Italica difference -16.94%.
For CCC(=O)N1CCC2(CC1)CN(Cc1cccc(F)c1)[C@H](CO)c1c2c2ccc(OC)cc2n1C the result was Gaussia minus Italica difference -3.365%.
For O=C(Cc1ccccc1)N1CC(=O)N2[C@H](CO)[C@H](c3ccc(C#CCc4ccccc4)cc3)[C@H]2C1 the result was Gaussia minus Italica difference -24.25%.

4 of the entries, repeated:

- O=C(Nc1cccc(Cl)c1)N[C@@H]1CC[C@H](CCn2cc(Cc3ccccc3)nn2)O[C@H]1CO | Gaussia minus Italica difference 0.1732%
- CO[C@@H]1CN(C)C(=O)c2cc(NC(=O)Nc3ccccc3F)ccc2OC[C@H](C)N(CCC(F)(F)F)C[C@H]1C | Gaussia minus Italica difference -18.77%
- COc1ccc2c3c(n(C)c2c1)[C@@H](CO)N(C(=O)Nc1ccccc1F)CC31CCN(C(=O)c2ccccc2)CC1 | Gaussia minus Italica difference -14.45%
- COc1ccc2c3c([nH]c2c1)[C@H](CO)N(CC1CC1)CC31CN(C(=O)c2cccc(F)c2)C1 | Gaussia minus Italica difference -16.94%